Laboratory results: publication PMC8430637

Chains of the proteins cited; added tags and fusions are not shown.
UniProt Q7Z6Z7: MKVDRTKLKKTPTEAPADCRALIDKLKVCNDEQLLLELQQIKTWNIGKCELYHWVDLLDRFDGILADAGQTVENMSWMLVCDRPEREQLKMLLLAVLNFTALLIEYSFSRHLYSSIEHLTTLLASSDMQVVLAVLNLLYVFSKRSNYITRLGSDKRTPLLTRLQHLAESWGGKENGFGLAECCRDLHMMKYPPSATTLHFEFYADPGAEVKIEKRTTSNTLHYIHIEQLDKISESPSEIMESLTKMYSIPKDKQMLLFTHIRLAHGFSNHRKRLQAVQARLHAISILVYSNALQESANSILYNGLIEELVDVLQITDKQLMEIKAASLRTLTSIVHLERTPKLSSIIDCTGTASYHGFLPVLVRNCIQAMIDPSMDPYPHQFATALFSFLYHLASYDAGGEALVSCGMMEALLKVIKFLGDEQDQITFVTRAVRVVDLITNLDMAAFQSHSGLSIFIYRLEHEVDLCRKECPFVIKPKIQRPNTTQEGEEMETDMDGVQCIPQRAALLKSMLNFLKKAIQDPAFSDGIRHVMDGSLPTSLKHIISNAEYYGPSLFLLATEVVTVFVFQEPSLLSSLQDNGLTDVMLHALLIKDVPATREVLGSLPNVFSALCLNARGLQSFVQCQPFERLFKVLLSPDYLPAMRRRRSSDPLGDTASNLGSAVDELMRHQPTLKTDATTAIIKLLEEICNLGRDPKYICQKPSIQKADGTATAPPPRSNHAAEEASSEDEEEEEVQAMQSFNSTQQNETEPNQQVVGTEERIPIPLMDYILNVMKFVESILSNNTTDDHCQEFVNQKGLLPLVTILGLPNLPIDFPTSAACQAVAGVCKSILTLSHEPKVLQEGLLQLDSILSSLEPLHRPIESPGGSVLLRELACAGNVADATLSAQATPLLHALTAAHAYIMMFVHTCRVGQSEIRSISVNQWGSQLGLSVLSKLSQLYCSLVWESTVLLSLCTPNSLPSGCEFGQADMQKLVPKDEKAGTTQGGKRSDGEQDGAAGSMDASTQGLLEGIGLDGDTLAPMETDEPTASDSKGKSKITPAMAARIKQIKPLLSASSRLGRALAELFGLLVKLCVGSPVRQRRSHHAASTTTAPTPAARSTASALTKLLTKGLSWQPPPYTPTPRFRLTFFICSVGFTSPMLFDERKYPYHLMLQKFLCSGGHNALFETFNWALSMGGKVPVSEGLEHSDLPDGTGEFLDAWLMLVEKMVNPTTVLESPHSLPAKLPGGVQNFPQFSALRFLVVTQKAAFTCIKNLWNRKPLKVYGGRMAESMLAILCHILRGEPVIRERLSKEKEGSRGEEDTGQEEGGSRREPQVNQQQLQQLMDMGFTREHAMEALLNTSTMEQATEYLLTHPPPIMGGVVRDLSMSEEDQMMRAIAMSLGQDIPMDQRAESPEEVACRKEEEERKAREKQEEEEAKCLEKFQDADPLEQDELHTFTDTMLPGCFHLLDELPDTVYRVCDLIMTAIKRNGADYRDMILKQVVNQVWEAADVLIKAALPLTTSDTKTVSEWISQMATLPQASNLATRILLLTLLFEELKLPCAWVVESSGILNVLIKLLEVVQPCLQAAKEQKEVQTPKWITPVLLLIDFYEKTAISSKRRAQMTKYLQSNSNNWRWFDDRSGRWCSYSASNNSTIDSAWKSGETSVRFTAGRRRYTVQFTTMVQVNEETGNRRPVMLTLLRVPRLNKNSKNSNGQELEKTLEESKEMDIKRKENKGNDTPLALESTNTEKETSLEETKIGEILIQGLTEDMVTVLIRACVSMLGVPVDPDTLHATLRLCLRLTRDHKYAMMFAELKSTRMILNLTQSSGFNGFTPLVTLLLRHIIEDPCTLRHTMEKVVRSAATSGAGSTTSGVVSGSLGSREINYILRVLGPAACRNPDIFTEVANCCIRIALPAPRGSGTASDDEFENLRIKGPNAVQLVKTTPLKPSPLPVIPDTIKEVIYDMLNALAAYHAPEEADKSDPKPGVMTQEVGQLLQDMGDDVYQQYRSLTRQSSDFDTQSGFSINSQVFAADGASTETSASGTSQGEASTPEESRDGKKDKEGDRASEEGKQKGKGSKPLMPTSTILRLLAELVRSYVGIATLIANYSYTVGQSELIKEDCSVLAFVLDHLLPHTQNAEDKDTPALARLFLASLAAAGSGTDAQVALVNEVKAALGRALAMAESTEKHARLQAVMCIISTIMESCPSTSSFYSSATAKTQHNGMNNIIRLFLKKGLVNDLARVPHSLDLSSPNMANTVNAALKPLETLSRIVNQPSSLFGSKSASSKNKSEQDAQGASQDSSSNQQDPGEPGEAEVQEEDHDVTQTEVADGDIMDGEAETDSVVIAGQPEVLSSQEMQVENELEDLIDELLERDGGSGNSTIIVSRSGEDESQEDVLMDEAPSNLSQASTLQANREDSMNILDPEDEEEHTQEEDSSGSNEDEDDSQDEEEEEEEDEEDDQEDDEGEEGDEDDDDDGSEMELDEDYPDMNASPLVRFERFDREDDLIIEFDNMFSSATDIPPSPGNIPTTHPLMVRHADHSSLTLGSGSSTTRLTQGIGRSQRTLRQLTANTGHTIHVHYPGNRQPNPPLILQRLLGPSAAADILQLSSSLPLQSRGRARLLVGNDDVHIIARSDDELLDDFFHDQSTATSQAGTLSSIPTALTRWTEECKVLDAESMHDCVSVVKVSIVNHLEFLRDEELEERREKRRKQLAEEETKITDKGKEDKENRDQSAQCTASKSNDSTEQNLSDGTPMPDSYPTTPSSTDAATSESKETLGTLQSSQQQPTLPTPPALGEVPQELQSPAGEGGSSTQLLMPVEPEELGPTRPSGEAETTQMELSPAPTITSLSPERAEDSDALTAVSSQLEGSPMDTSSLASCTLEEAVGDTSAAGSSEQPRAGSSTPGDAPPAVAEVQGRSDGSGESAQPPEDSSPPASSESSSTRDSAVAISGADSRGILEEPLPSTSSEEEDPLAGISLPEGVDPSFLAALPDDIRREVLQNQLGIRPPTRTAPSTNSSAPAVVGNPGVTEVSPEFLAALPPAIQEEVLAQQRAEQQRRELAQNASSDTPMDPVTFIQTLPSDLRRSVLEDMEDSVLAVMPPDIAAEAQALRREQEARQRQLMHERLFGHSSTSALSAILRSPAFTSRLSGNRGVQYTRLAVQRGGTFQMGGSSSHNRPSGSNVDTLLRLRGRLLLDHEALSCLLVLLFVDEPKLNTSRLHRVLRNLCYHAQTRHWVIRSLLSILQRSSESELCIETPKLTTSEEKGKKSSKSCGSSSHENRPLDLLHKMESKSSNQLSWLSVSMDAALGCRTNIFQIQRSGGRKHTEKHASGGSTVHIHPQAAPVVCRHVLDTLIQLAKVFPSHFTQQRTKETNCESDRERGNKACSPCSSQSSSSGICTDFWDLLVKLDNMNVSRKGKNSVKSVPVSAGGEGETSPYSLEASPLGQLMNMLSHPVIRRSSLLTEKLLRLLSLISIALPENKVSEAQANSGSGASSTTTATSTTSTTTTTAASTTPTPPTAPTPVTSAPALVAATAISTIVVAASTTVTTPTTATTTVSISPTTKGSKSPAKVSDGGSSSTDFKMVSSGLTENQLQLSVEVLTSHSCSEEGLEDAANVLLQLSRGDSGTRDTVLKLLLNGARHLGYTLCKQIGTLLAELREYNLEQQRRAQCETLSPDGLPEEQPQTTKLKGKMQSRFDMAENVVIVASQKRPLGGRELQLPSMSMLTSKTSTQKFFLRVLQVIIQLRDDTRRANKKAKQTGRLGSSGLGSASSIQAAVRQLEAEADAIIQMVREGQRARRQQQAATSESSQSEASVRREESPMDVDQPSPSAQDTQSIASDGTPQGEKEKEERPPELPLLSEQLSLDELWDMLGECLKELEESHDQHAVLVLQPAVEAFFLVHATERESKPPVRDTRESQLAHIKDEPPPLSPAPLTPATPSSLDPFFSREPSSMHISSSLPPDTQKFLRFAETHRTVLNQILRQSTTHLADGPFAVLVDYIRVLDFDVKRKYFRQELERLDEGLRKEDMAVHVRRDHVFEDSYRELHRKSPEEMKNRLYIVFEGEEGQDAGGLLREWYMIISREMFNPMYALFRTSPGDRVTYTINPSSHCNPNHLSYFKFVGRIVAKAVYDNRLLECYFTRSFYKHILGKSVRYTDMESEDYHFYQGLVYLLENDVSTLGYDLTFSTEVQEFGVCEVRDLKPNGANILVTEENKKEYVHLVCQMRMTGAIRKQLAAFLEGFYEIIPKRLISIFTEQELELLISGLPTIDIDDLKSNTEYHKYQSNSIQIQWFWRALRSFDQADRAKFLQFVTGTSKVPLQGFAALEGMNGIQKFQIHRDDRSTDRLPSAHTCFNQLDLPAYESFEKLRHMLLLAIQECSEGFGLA

Target: T1, autophagy-related protein 101 (ATG101), endogenous (human (endogenous in MIA PaCa-2)) (UniProt Q9BSB4)
T1 sequence: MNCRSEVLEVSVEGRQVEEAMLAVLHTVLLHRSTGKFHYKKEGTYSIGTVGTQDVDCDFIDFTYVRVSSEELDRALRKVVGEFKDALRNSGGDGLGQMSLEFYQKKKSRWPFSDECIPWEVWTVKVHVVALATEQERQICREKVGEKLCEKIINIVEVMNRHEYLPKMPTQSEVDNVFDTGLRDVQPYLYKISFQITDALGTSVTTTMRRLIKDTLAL
Assay: affinity purification with mass spectrometry; immunoprecipitation of ATG101 from MIA PaCa-2 cells, LC-MS/MS of the immunoprecipitated complex

With “HECT, UBA and WWE domain containing E3 ubiquitin protein ligase 1 (HUWE1), endogenous (from UniProt Q7Z6Z7 1-4374) (enzyme)” the binding was “binds”.

No constants are given. Whether binding was seen depends on the method and setting. In cells and extracts the contact can be indirect. These calls come from enrichment with a bait or labelling near it, and not all partners need be listed.
